Results deposited as PubChem BioAssay AID1259254 (NCATS, 2017).

Screen: 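Finding genes that stop cells copying their DNA twice in one cycle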 (primary screen)
Cell system: human HCT116 colorectal cancer cells
Reagent: single siRNA against human genes
Timing: 3 days
Read-out: 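Nuclei stained with Hoechst and imaged; cell-cycle phase assigned by DNA content; G2 share scaled per plate, non-targeting siRNA 0%, GMNN siRNA 100%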
Scale: G2 robust z-score: higher = more G2 cells, more excess DNA replication
Call rule: 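Active siRNAs have a G2 robust z of 5 or more median absolute deviations over the median, which in these data means about 38% or higher of GMNN control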
Here is a random part of about 59,000 deposited reagents. Of all reagents, about 1,550 (2.6%) are marked active. 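G2 share is only a proxy for re-replication; each gene was hit by three separate siRNAs, and active genes were retested.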 Reagents against one gene are numbered here. Not all columns of the deposit are shown. No sequences are given here. Not given: the amount of reagent.

no.	Gene	reagent no.	G2 robust z-score	Call
1	BTG3 (BTG anti-proliferation factor 3)	1	-0.417	inactive
2	BTG3 (BTG anti-proliferation factor 3)	2	0.971	inactive
3	BTG3 (BTG anti-proliferation factor 3)	3	-0.35	inactive
4	PSME3 (proteasome activator subunit 3)	1	-0.658	inactive
5	PSME3 (proteasome activator subunit 3)	2	0.902	inactive
6	PSME3 (proteasome activator subunit 3)	3	2.76	inactive
7	MC4R (melanocortin 4 receptor)	1	-0.0974	inactive
8	MC4R (melanocortin 4 receptor)	2	0.34	inactive
9	MC4R (melanocortin 4 receptor)	3	7.18	active
10	SNHG32 (small nucleolar RNA host gene 32)	1	-0.649	inactive
11	SNHG32 (small nucleolar RNA host gene 32)	2	1.07	inactive
12	SNHG32 (small nucleolar RNA host gene 32)	3	1.38	inactive
13	NCAPD2 (non-SMC condensin I complex subunit D2)	1	2.19	inactive
14	NCAPD2 (non-SMC condensin I complex subunit D2)	2	0.77	inactive
15	NCAPD2 (non-SMC condensin I complex subunit D2)	3	-0.688	inactive
16	NHLH2 (nescient helix-loop-helix 2)	1	1.42	inactive
17	NHLH2 (nescient helix-loop-helix 2)	2	0.266	inactive
18	NHLH2 (nescient helix-loop-helix 2)	3	-0.892	inactive
19	VPS28 (VPS28 subunit of ESCRT-I)	1	0.62	inactive
20	VPS28 (VPS28 subunit of ESCRT-I)	2	-0.0166	inactive
21	VPS28 (VPS28 subunit of ESCRT-I)	3	-0.0282	inactive
22	DNAJB5 (DnaJ heat shock protein family (Hsp40) member B5)	1	-0.201	inactive
23	DNAJB5 (DnaJ heat shock protein family (Hsp40) member B5)	2	-0.47	inactive
24	DNAJB5 (DnaJ heat shock protein family (Hsp40) member B5)	3	1.66	inactive
25	ZNF345 (zinc finger protein 345)	1	-0.268	inactive
26	ZNF345 (zinc finger protein 345)	2	-0.179	inactive
27	ZNF345 (zinc finger protein 345)	3	1.73	inactive
28	HMGB3P22 (high mobility group box 3 pseudogene 22)	1	0.128	inactive
29	HMGB3P22 (high mobility group box 3 pseudogene 22)	2	-1.32	inactive
30	HMGB3P22 (high mobility group box 3 pseudogene 22)	3	-0.795	inactive
31	RPS2P8 (ribosomal protein S2 pseudogene 8)	1	5.48	active
32	RPS2P8 (ribosomal protein S2 pseudogene 8)	2	2.19	inactive
33	RPS2P8 (ribosomal protein S2 pseudogene 8)	3	-0.125	inactive
34	NGB (neuroglobin)	1	0.506	inactive
35	NGB (neuroglobin)	2	-0.194	inactive
36	NGB (neuroglobin)	3	0.131	inactive
37	NGB (neuroglobin)	4	2.73	inactive
38	NGB (neuroglobin)	5	-0.612	inactive
39	NGB (neuroglobin)	6	3.81	inactive
40	TENM4 (teneurin transmembrane protein 4)	1	-1.1	inactive
41	TENM4 (teneurin transmembrane protein 4)	2	-0.173	inactive
42	TENM4 (teneurin transmembrane protein 4)	3	-0.884	inactive
43	HSD11B2 (hydroxysteroid 11-beta dehydrogenase 2)	1	1.13	inactive
44	HSD11B2 (hydroxysteroid 11-beta dehydrogenase 2)	2	-0.501	inactive
45	HSD11B2 (hydroxysteroid 11-beta dehydrogenase 2)	3	0.332	inactive
46	E2F3 (E2F transcription factor 3)	1	-0.791	inactive
47	E2F3 (E2F transcription factor 3)	2	-1.04	inactive
48	E2F3 (E2F transcription factor 3)	3	-1.05	inactive
49	TNFRSF10B (TNF receptor superfamily member 10b)	1	1.1	inactive
50	TNFRSF10B (TNF receptor superfamily member 10b)	2	0.527	inactive
51	TNFRSF10B (TNF receptor superfamily member 10b)	3	-0.0467	inactive
52	IMPDH1 (inosine monophosphate dehydrogenase 1)	1	-0.257	inactive
53	IMPDH1 (inosine monophosphate dehydrogenase 1)	2	-0.436	inactive
54	IMPDH1 (inosine monophosphate dehydrogenase 1)	3	-0.686	inactive
55	AP3M2 (adaptor related protein complex 3 subunit mu 2)	1	-0.016	inactive
56	AP3M2 (adaptor related protein complex 3 subunit mu 2)	2	-0.501	inactive
57	AP3M2 (adaptor related protein complex 3 subunit mu 2)	3	-0.261	inactive
58	YIPF6 (Yip1 domain family member 6)	1	-0.601	inactive
59	YIPF6 (Yip1 domain family member 6)	2	3.2	inactive
60	YIPF6 (Yip1 domain family member 6)	3	0.242	inactive
61	ABCG5 (ATP binding cassette subfamily G member 5)	1	-0.896	inactive
62	ABCG5 (ATP binding cassette subfamily G member 5)	2	-0.956	inactive
63	ABCG5 (ATP binding cassette subfamily G member 5)	3	0.693	inactive
64	MTNR1A (melatonin receptor 1A)	1	-0.687	inactive
65	MTNR1A (melatonin receptor 1A)	2	-1.41	inactive
66	MTNR1A (melatonin receptor 1A)	3	0.602	inactive
67	TRIM62 (tripartite motif containing 62)	1	1.9	inactive
68	TRIM62 (tripartite motif containing 62)	2	0.0118	inactive
69	TRIM62 (tripartite motif containing 62)	3	-0.283	inactive
70	DPM2 (dolichyl-phosphate mannosyltransferase subunit 2, regulatory)	1	-0.776	inactive
71	DPM2 (dolichyl-phosphate mannosyltransferase subunit 2, regulatory)	2	-1.07	inactive
72	DPM2 (dolichyl-phosphate mannosyltransferase subunit 2, regulatory)	3	0.503	inactive
73	RHOJ (ras homolog family member J)	1	1.42	inactive
74	RHOJ (ras homolog family member J)	2	1.25	inactive
75	RHOJ (ras homolog family member J)	3	6.52	active
76	PSG6 (pregnancy specific beta-1-glycoprotein 6)	1	3.01	inactive
77	PSG6 (pregnancy specific beta-1-glycoprotein 6)	2	-0.994	inactive
78	PSG6 (pregnancy specific beta-1-glycoprotein 6)	3	0.327	inactive
79	OR5V1 (olfactory receptor family 5 subfamily V member 1)	1	-1.07	inactive
80	OR5V1 (olfactory receptor family 5 subfamily V member 1)	2	-0.705	inactive
81	OR5V1 (olfactory receptor family 5 subfamily V member 1)	3	-0.481	inactive
82	NEK5 (NIMA related kinase 5)	1	0.123	inactive
83	NEK5 (NIMA related kinase 5)	2	-0.753	inactive
84	NEK5 (NIMA related kinase 5)	3	-0.695	inactive
85	ACVR1B (activin A receptor type 1B)	1	-1.57	inactive
86	ACVR1B (activin A receptor type 1B)	2	-0.601	inactive
87	ACVR1B (activin A receptor type 1B)	3	-0.912	inactive

13 entries already listed, sorted by “G2 robust z-score”, lowest first.
Gene	reagent no.	G2 robust z-score	Call
ACVR1B (activin A receptor type 1B)	1	-1.57	inactive
OR5V1 (olfactory receptor family 5 subfamily V member 1)	1	-1.07	inactive
PSG6 (pregnancy specific beta-1-glycoprotein 6)	2	-0.994	inactive
ACVR1B (activin A receptor type 1B)	3	-0.912	inactive
NEK5 (NIMA related kinase 5)	2	-0.753	inactive
OR5V1 (olfactory receptor family 5 subfamily V member 1)	2	-0.705	inactive
NEK5 (NIMA related kinase 5)	3	-0.695	inactive
ACVR1B (activin A receptor type 1B)	2	-0.601	inactive
OR5V1 (olfactory receptor family 5 subfamily V member 1)	3	-0.481	inactive
NEK5 (NIMA related kinase 5)	1	0.123	inactive
PSG6 (pregnancy specific beta-1-glycoprotein 6)	3	0.327	inactive
PSG6 (pregnancy specific beta-1-glycoprotein 6)	1	3.01	inactive
RHOJ (ras homolog family member J)	3	6.52	active
